# Screening data, single-dose tests

Chains of the proteins cited; added tags and fusions are not shown.
UniProt P9WFT3, whole entry: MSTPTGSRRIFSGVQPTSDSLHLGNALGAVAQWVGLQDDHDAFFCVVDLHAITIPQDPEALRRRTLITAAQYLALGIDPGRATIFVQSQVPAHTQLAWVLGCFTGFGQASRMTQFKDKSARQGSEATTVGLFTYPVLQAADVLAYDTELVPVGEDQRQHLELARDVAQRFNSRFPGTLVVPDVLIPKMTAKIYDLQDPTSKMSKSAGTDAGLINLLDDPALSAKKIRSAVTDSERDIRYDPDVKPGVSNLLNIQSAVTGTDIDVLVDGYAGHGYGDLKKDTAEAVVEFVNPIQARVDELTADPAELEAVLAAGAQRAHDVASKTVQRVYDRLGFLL
UniProt P9WNZ1, whole entry: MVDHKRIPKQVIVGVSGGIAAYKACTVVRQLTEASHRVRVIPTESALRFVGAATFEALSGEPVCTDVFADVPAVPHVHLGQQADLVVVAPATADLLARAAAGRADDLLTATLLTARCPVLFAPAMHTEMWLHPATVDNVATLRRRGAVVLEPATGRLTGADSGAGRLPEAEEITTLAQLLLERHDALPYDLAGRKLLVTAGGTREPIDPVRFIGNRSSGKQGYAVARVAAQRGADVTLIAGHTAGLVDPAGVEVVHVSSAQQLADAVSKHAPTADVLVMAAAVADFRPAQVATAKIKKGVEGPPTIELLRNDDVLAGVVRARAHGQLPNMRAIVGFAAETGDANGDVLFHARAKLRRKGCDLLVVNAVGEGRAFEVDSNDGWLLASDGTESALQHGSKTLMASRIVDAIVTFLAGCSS
UniProt P9WPC5, whole entry: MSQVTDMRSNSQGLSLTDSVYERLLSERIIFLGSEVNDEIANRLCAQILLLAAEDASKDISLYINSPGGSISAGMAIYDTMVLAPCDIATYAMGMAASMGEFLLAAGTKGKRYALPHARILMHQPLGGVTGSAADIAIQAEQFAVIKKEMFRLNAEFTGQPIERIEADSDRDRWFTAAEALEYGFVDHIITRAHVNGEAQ
UniProt P9WPC3, whole entry partner: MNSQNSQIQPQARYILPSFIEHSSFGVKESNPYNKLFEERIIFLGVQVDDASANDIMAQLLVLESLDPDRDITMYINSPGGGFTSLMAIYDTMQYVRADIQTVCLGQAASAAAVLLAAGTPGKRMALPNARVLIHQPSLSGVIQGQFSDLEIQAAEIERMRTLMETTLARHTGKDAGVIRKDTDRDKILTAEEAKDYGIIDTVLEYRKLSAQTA

MtTrpRS: 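Enzyme assay of tryptophanyl-tRNA synthetase; the read-out is not stated. Target: Tryptophan-tRNA ligase, Mycobacterium tuberculosis (UniProt P9WFT3). Compounds at 10 µM. Higher most likely means stronger inhibition; the record gives no direction and few retests gave an IC50. Of about 65,000 compounds tested this way, about 64 (0.098%) reached 50% or more in at least one test.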
CoaBC: 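Enzyme assay of CoaBC with a phosphate dye (Biomol Green) read at 650 nm. Target: Coenzyme A biosynthesis protein CoaBC, Mycobacterium tuberculosis (UniProt P9WNZ1). Compounds at 30 µM. Direction is inferred from only a few compounds that gave an IC50; most scored high, so higher reads as stronger inhibition. Most strong results did not repeat in a second test. About 67,000 compounds were tested under these conditions; 0.06% (about 40) showed 50% or more at least once.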
ClpP1P2: 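Protease assay of ClpP1P2, read by the AMC dye that it sets free. Target: ClpP1P2, Mycobacterium tuberculosis (UniProt P9WPC5 and UniProt P9WPC3). Concentration: 50 µM. Higher reads as stronger inhibition, judged from the few compounds that gave an IC50. Most other retested compounds had strongly negative values. Size under these conditions: about 69,000 compounds, about 10 of them at 50% or above in at least one test.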

Each number is a percent effect as filed.
How 0% and 100% were set is not recorded. Most values in the screen are low, and negative values occur.
The compounds are a random part of those screened.
A dash means the value is not listed here; it may have been measured.

| SMILES | MtTrpRS | CoaBC | ClpP1P2 |
|---|---|---|---|
| `CCNC(=O)[C@@H]1C[C@@H](NC(=O)Cc2ccncc2)CN1Cc1ccsc1` | 2.423 | -6.14 | -20.42 |
| `Cc1nccn1-c1ccc(NC(=O)C2CCCN2Cc2ccoc2)cc1` (centres unmarked) | -3.445 | 5.433 | -3.448 |
| `COCC(=O)N1CCCC2(CCN(c3ccccc3)C2=O)C1` (centres unmarked) | -3.867 | 2.349 | -5.503 |
| `Cc1cnc(CNCc2cn(CCN3CCSCC3)nc2C)cn1` | -4.759 | -1.077 | 12.21 |
| `CCCn1nc(C)c(C(=O)N(C)[C@@H]2CC[C@@H](N3CCCC3)[C@@H]2O)c1C` | -6.082 | 2.628 | -3.685 |
| `Cc1noc(C)c1CNC(=O)N(C1CC1)C(C)c1ccco1` (centres unmarked) | -1.102 | 2.781 | -3.966 |
| `CC(=O)N(Cc1noc(C)n1)C1CCN(Cc2ccon2)C1` (centres unmarked) | 0.4873 | 6.789 | 9.514 |
| `O=C(NCCc1ccccc1)C1CCCN(c2ccc3nncn3n2)C1` (centres unmarked) | -2.256 | -0.8772 | -5.698 |
| `Cn1cc(CN2CC[C@H](O)[C@@H](n3ccc(=O)[nH]c3=O)CC2)cn1` | - | 5.824 | -4.459 |
| `CCOc1cc(CN(C)CCOC)ccc1OC(F)F` | -4.722 | 0.4545 | 2.941 |
| `CC(=O)N1CCCC1c1nccnc1NCc1cccnc1` (centres unmarked) | -1.339 | -0.9709 | -20.56 |
| `COCCn1nc(C(=O)N2CCCC2c2cccc(F)c2)ccc1=O` (centres unmarked) | 1.006 | 7.036 | -16.29 |
| `CCOC(=O)CN1C(=O)CN(S(C)(=O)=O)CCC(OC)c2ccccc21` (centres unmarked) | - | 3.632 | 3.286 |
| `CCS(=O)(=O)N1CCCCC1c1nc(CC(C)C)no1` (centres unmarked) | 0.3819 | 1.786 | -16.46 |
| `Cc1cnn(CC2CCCN2c2ncnc3ccccc23)c1` (centres unmarked) | -1.1 | -2.764 | -10.4 |
| `CCn1cc(NC(=O)Nc2ccc3c(c2)OCCO3)cn1` | -34.36 | -5.898 | -12.52 |
| `COc1ccc(CCCN(C)C(=O)c2cc(C(C)=O)c[nH]2)cc1OC` | 0.1022 | 0.8917 | 7.456 |
| `Oc1nc(N2CCOCC2)nc2nccc(-c3ccccn3)c12` | -2.169 | 3.924 | -46.3 |
| `Cc1ccc(CNC(=O)CN2CCCC(Cn3cncn3)C2)cc1` (centres unmarked) | -1.847 | 1.305 | -17.9 |
| `Cc1cccc(CN2CC[C@H]3[C@H]2CCN3C(=O)c2cnn(C)c2)n1` | -3.3 | 0.4878 | 3.614 |
| `O=C(Nc1nccs1)NC1CCN(CC2CCCC2)CC1` | 0.6685 | 5.263 | -12.7 |
| `Cc1ncc(CN2CCC(c3ccnn3C)CC2)n1-c1ccccc1` | -0.1432 | 8.404 | 12.24 |
| `COC(=O)N1CCN(Cc2csc(-c3ncccn3)n2)CC1` | -10.79 | 2.893 | -0.2406 |
| `CN(C)C(=O)N1CCC(C2C(=O)Nc3ccccc32)CC1` (centres unmarked) | -4.931 | 5.089 | -5.293 |
| `Cc1nc(NC(=O)c2cccnc2N2CCOCC2)sc1C` | 1.505 | 1.22 | -12.97 |
| `Cc1nn(C)c2c(=O)n(CC(=O)Nc3cc(Cl)cc(Cl)c3)nnc12` | -5.628 | 10.36 | 11.64 |
| `Cc1cc(NCCCNc2cccnc2)n2nc(C)c(C)c2n1` | 1.814 | 6.947 | 2.753 |
| `CC(=O)N1CCO[C@@H]2CN(C(=O)c3ccc4ncccc4c3)CC[C@@H]2C1` | -1.082 | -1.018 | -1.046 |
| `CN(CC(=O)N1CCc2[nH]c3ccc(F)cc3c2C1)CC1OCCO1` | -0.3215 | -1.094 | 13.23 |
| `COC(=O)c1cccc(NCC(=O)NC(N)=O)c1` | -0.9497 | 7.393 | 11.89 |
| `Cc1cc(C(=O)N2CCN(c3ncc4c(n3)CCOC4)CC2)sc1C` | -2.023 | -33.9 | -12.9 |
| `CS(=O)(=O)c1cccc(S(=O)(=O)NC(=O)CCC2CCCCC2)c1` | 4.541 | - | -0.2549 |
| `CS(=O)(=O)CCCN1CCSCC1c1ccc(Cl)cc1` (centres unmarked) | 0.7389 | 1.351 | -7.164 |
| `Cc1cnc(N2CC[C@@H](N3CCOCC3)[C@@H]2Cc2ccncc2)nc1` | 4.216 | 1.463 | 3.558 |
| `Cc1ccc(-c2nc(C(=O)NCC3CCOC3)cs2)cc1` (centres unmarked) | -4.966 | 3.742 | 2.496 |
| `CCNC(=O)[C@@H]1C[C@@H](NC(=O)c2cc(C)on2)CN1Cc1ccccn1` | 4.112 | 1.488 | 9.21 |
| `CN(C)CCOCC1CN(Cc2ccncc2)Cc2nnn(C)c21` (centres unmarked) | 1.543 | 0.4938 | -1.418 |
| `O=C1C(NCc2nnc3n2CCCC3)CCN1c1ccccc1` (centres unmarked) | -0.3712 | 3.627 | 6.633 |
| `CC(C)N1CCC2(CC1)C[C@@H](O)[C@H](c1ccccc1)NC2=O` | 12.39 | 11.99 | -7.431 |
| `Cc1cnn(CC2CCCN2C(=O)c2nccc3ccccc23)c1` (centres unmarked) | 0.5473 | 8.974 | 5.846 |
| `CCc1nc(C)sc1CN1CC[C@@](O)(C2CCOCC2)[C@H](C)C1` | -3.456 | 3.641 | -14.14 |
| `O=C1NCCCCC1NCc1csc(-c2ccc(F)cc2)n1` (centres unmarked) | -0.8256 | - | 7.093 |
| `O=C(Nc1ncn(CC(=O)N2CCCCCC2)n1)C1CCCC1` | -9.048 | 3.836 | -12.21 |
| `Cc1cc(N(C)CCN(C)C)n2nc(C)cc2n1` | -0.5038 | -15.77 | -1.187 |

The last 3 entries again:

O=C1NCCCCC1NCc1csc(-c2ccc(F)cc2)n1 (centres unmarked) read MtTrpRS: -0.8256%; ClpP1P2: 7.093%.
O=C(Nc1ncn(CC(=O)N2CCCCCC2)n1)C1CCCC1 read MtTrpRS: -9.048%; CoaBC: 3.836%; ClpP1P2: -12.21%.
Cc1cc(N(C)CCN(C)C)n2nc(C)cc2n1 read MtTrpRS: -0.5038%; CoaBC: -15.77%; ClpP1P2: -1.187%.

Data taken from ChEMBL document CHEMBL3988442, “University of Dundee, Small-Polar-MMV Screening Library” (2021).